According to publication PMC10238091:
Results are given in words; binding and its absence hold for the method and conditions named. Binding seen in cells or lysates may run through a third protein. Here binding means that the protein was enriched with, or labelled near, the bait; the list need not be complete. Sequences can lack the tags named with a protein. Blank lines part the entries; values can stand above or below the molecule they belong to.

By UniProt entry, the sequences of proteins in these tests, tags left out.
UniProt Q92616: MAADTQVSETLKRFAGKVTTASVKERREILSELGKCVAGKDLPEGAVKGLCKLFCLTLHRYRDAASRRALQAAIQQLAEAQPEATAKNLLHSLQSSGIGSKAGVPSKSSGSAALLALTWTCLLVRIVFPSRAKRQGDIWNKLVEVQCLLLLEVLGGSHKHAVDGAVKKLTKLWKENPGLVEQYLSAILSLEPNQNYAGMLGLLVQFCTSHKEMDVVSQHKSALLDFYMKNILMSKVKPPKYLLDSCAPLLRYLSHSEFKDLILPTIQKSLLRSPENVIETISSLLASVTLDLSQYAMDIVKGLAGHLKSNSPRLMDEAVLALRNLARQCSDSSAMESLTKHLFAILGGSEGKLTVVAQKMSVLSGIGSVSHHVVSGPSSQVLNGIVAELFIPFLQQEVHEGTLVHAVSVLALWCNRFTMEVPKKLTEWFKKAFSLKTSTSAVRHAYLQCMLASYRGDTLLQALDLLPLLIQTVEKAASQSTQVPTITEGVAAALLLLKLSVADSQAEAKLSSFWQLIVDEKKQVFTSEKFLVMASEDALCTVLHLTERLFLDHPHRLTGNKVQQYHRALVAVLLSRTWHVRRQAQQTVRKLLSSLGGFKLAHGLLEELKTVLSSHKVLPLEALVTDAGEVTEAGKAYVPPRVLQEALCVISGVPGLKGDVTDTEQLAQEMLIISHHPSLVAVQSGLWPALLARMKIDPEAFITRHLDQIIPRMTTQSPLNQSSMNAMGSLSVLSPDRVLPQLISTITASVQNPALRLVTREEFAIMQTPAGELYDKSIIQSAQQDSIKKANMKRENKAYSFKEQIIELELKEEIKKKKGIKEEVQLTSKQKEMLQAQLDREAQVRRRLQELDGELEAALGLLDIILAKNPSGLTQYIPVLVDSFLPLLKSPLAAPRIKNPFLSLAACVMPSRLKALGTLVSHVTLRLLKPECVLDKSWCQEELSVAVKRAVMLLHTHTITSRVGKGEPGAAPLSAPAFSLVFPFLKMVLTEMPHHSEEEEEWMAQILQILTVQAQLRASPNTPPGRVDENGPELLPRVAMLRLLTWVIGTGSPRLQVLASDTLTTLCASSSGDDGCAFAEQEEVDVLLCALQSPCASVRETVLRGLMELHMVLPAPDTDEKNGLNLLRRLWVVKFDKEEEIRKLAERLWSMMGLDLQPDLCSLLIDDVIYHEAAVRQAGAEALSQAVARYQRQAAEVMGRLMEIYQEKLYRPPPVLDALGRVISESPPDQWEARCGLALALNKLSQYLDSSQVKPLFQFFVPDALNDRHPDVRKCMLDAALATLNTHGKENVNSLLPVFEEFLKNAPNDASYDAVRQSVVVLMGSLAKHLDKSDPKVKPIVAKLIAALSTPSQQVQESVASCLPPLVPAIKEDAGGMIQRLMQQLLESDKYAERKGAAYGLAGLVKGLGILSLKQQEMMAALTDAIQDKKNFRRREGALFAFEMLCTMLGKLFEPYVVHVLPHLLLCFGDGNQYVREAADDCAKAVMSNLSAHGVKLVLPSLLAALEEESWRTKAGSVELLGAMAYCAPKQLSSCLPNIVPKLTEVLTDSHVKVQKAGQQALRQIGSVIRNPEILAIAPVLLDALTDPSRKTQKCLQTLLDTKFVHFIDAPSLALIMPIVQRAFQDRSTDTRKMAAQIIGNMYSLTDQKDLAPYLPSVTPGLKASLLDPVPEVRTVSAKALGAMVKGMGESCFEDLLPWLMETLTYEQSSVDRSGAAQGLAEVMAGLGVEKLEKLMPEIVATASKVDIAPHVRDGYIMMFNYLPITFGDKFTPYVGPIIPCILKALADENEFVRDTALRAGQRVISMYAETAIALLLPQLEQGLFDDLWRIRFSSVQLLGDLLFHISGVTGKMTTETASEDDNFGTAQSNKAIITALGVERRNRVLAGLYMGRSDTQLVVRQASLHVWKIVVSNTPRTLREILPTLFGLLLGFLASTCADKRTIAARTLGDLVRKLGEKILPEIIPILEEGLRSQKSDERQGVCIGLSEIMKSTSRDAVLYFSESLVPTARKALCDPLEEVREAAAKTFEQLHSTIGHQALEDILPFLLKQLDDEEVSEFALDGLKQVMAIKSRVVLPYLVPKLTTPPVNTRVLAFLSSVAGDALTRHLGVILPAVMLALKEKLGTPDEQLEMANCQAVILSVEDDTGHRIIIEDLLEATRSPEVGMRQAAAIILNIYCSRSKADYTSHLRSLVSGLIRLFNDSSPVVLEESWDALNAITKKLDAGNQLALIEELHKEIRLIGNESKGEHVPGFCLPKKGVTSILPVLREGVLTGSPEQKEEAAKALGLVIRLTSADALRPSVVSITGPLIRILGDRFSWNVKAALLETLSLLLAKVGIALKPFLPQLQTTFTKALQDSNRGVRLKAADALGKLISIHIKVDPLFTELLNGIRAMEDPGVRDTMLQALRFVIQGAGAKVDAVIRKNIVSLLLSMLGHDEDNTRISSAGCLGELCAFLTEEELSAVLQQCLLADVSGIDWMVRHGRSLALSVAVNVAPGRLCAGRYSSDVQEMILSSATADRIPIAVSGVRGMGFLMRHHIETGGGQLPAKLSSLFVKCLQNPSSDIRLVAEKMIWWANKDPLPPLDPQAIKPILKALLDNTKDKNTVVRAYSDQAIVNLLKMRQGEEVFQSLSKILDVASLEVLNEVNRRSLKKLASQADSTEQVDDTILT
UniProt Q92833: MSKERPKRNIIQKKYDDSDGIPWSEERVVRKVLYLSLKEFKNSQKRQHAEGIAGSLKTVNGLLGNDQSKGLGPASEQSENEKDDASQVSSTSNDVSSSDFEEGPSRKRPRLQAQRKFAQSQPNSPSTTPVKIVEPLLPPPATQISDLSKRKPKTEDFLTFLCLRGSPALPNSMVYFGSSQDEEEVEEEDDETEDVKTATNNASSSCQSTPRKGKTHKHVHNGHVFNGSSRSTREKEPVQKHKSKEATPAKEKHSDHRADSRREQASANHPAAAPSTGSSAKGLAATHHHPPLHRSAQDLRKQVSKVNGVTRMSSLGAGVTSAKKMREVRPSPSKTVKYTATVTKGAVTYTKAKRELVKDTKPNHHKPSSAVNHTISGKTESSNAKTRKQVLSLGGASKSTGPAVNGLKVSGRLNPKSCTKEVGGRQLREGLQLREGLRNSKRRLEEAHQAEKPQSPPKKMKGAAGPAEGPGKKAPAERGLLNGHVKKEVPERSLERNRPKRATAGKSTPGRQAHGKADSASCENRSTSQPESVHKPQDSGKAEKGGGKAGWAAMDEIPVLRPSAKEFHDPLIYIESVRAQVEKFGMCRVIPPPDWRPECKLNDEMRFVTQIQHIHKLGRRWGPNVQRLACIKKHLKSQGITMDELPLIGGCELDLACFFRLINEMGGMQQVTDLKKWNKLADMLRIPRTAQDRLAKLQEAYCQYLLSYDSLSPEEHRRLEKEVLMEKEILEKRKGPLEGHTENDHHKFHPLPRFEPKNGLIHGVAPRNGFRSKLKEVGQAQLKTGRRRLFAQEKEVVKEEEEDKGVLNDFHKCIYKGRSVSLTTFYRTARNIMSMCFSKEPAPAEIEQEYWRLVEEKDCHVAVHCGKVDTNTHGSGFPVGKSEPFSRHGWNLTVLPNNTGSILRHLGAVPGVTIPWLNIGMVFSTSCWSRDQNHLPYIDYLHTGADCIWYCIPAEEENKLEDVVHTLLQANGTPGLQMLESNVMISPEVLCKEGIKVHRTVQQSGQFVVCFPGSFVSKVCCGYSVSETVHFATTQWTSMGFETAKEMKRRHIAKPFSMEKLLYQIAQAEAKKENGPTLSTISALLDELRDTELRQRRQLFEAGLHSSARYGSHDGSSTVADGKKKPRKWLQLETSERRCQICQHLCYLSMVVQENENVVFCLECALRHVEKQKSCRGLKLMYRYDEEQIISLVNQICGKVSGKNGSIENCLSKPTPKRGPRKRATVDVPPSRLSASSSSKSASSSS
UniProt Q9UQE7: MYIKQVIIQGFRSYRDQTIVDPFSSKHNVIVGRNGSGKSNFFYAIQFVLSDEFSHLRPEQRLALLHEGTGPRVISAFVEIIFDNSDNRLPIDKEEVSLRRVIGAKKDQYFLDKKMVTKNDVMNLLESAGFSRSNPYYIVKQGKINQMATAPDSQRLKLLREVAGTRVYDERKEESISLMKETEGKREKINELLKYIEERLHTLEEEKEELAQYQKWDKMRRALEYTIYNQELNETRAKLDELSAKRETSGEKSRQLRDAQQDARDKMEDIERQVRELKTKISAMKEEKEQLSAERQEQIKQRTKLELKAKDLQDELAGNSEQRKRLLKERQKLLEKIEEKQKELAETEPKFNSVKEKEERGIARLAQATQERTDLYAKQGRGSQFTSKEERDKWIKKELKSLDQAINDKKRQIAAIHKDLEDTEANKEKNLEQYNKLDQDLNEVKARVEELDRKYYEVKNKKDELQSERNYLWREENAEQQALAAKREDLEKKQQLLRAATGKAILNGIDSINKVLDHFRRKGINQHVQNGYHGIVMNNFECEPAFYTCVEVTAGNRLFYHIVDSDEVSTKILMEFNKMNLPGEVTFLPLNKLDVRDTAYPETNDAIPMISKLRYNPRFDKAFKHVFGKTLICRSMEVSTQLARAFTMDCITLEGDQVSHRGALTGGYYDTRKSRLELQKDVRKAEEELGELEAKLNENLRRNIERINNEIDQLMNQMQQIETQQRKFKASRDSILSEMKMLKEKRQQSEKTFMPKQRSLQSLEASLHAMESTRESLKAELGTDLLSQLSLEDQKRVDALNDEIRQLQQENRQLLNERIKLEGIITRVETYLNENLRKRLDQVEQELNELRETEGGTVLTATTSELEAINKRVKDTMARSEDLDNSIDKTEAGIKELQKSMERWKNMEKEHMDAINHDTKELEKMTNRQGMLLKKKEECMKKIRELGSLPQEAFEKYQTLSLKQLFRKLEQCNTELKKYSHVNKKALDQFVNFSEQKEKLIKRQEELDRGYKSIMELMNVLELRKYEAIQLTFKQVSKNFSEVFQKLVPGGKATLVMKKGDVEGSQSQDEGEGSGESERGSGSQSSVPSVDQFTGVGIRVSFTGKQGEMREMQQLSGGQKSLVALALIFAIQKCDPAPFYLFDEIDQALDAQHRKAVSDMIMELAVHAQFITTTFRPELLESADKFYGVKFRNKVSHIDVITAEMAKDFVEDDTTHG
UniProt Q07955: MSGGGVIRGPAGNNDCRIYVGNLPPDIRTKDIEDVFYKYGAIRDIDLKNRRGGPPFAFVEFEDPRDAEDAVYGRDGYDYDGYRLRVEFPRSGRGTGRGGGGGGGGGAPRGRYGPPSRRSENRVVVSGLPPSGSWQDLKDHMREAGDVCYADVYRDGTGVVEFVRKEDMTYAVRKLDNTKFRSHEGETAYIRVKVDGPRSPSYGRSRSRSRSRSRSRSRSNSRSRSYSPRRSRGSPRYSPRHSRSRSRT
UniProt O60506: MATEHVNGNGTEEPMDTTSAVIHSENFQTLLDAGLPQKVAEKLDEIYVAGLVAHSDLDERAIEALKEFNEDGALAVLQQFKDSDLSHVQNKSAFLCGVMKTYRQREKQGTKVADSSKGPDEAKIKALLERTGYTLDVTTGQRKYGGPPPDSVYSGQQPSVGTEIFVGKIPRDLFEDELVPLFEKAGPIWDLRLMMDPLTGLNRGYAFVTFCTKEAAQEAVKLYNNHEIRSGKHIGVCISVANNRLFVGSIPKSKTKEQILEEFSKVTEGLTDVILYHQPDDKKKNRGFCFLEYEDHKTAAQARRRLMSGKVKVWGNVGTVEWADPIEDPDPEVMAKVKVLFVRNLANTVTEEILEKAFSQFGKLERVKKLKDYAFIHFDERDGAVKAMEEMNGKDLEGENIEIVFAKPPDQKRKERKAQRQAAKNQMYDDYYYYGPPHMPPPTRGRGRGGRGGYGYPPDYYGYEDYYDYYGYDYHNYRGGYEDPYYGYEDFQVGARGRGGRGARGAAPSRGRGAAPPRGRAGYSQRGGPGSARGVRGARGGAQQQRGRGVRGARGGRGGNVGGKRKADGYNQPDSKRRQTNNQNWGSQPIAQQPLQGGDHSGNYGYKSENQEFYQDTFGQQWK

Molecular target: T1, SA1 (Stromalin Antigen 1, STAG1) (human (endogenous in HCT116 and HeLa)) (UniProt Q8WVM7)
T1 sequence: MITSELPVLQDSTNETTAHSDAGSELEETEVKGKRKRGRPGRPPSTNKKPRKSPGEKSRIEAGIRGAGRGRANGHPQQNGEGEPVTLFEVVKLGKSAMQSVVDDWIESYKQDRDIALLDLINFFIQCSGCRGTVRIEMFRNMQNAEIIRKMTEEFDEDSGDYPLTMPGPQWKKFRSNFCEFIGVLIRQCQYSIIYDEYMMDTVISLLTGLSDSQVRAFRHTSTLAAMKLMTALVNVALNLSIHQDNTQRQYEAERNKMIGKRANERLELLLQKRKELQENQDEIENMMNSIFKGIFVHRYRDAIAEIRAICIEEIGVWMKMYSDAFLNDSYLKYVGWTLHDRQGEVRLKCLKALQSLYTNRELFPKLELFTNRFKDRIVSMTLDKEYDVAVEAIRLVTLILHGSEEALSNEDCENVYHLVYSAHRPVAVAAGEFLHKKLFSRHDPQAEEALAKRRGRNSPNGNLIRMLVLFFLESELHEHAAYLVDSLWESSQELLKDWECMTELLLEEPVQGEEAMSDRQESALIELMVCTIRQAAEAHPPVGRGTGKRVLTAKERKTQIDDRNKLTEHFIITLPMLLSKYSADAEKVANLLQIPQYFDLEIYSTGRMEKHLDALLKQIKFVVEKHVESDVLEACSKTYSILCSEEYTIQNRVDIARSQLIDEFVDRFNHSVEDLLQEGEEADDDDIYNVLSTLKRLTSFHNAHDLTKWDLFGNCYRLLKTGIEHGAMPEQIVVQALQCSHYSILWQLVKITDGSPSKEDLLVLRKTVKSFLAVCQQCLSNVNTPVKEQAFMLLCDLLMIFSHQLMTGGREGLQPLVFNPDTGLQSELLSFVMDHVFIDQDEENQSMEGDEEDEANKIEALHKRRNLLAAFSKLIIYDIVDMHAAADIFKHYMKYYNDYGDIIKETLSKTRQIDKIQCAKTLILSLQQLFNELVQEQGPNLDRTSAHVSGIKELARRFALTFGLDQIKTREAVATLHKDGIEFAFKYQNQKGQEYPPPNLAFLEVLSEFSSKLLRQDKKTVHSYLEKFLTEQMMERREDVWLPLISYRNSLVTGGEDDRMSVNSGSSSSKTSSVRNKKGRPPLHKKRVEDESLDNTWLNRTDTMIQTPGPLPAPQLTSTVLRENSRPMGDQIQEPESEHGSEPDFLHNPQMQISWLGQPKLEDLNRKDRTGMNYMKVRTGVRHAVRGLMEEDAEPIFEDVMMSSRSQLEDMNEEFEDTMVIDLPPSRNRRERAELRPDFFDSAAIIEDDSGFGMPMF
Experiment: affinity purification with mass spectrometry; endogenous SA1 IP (15 μg antibody, 2 mg chromatin extract) from RAD21mAC cells untreated or IAA 4 h, with IgG and siSA1 controls; LC-MS/MS, three biological replicates

- binding: binds
Molecule: GCN1L1 (from UniProt Q92616 1-2671)

- binding: binds
Molecule: JARID2 (from UniProt Q92833 1-1246)

- binding: binds
Molecule: SMC3 (from UniProt Q9UQE7 1-1217)

- binding: binds
Molecule: SON (from UniProt P18583 1-2426)

- binding: binds
Molecule: SRSF1 (from UniProt Q07955 1-248)

- binding: binds
Molecule: SYNCRIP (from UniProt O60506 1-623)

- binding: binds
B1: PDS5B (protein, UniProt Q9NTI5 1-1447)
chain: MAHSKTRTNDGKITYPPGVKEISDKISKEEMVRRLKMVVKTFMDMDQDSEEEKELYLNLALHLASDFFLKHPDKDVRLLVACCLADIFRIYAPEAPYTSPDKLKDIFMFITRQLKGLEDTKSPQFNRYFYLLENIAWVKSYNICFELEDSNEIFTQLYRTLFSVINNGHNQKVHMHMVDLMSSIICEGDTVSQELLDTVLVNLVPAHKNLNKQAYDLAKALLKRTAQAIEPYITNFFNQVLMLGKTSISDLSEHVFDLILELYNIDSHLLLSVLPQLEFKLKSNDNEERLQVVKLLAKMFGAKDSELASQNKPLWQCYLGRFNDIHVPIRLECVKFASHCLMNHPDLAKDLTEYLKVRSHDPEEAIRHDVIVSIVTAAKKDILLVNDHLLNFVRERTLDKRWRVRKEAMMGLAQIYKKYALQSAAGKDAAKQIAWIKDKLLHIYYQNSIDDRLLVERIFAQYMVPHNLETTERMKCLYYLYATLDLNAVKALNEMWKCQNLLRHQVKDLLDLIKQPKTDASVKAIFSKVMVITRNLPDPGKAQDFMKKFTQVLEDDEKIRKQLEVLVSPTCSCKQAEGCVREITKKLGNPKQPTNPFLEMIKFLLERIAPVHIDTESISALIKQVNKSIDGTADDEDEGVPTDQAIRAGLELLKVLSFTHPISFHSAETFESLLACLKMDDEKVAEAALQIFKNTGSKIEEDFPHIRSALLPVLHHKSKKGPPRQAKYAIHCIHAIFSSKETQFAQIFEPLHKSLDPSNLEHLITPLVTIGHIALLAPDQFAAPLKSLVATFIVKDLLMNDRLPGKKTTKLWVPDEEVSPETMVKIQAIKMMVRWLLGMKNNHSKSGTSTLRLLTTILHSDGDLTEQGKISKPDMSRLRLAAGSAIVKLAQEPCYHEIITLEQYQLCALAINDECYQVRQVFAQKLHKGLSRLRLPLEYMAICALCAKDPVKERRAHARQCLVKNINVRREYLKQHAAVSEKLLSLLPEYVVPYTIHLLAHDPDYVKVQDIEQLKDVKECLWFVLEILMAKNENNSHAFIRKMVENIKQTKDAQGPDDAKMNEKLYTVCDVAMNIIMSKSTTYSLESPKDPVLPARFFTQPDKNFSNTKNYLPPEMKSFFTPGKPKTTNVLGAVNKPLSSAGKQSQTKSSRMETVSNASSSSNPSSPGRIKGRLDSSEMDHSENEDYTMSSPLPGKKSDKRDDSDLVRSELEKPRGRKKTPVTEQEEKLGMDDLTKLVQEQKPKGSQRSRKRGHTASESDEQQWPEEKRLKEDILENEDEQNSPPKKGKRGRPPKPLGGGTPKEEPTMKTSKKGSKKKSGPPAPEEEEEEERQSGNTEQKSKSKQHRVSRRAQQRAESPESSAIESTQSTPQKGRGRPSKTPSPSQPKKNVRVGRSKQAATKENDSSEEVDVFQGSSPVDDIPQEETEEEEVSTVNVRRRSAKRERR

- binding: binds
B2: SMARCAL1 (protein, UniProt Q9NZC9 1-954)
chain: MSLPLTEEQRKKIEENRQKALARRAEKLLAEQHQRTSSGTSIAGNPFQAKQGPSQNFPRESCKPVSHGVIFKQQNLSSSSNADQRPHDSHSFQAKGIWKKPEEMPTACPGHSPRSQMALTGISPPLAQSPPEVPKQQLLSYELGQGHAQASPEIRFTPFANPTHKPLAKPKSSQETPAHSSGQPPRDAKLEAKTAKASPSGQNISYIHSSSESVTPRTEGRLQQKSGSSVQKGVNSQKGKCVRNGDRFQVLIGYNAELIAVFKTLPSKNYDPDTKTWNFSMNDYSALMKAAQSLPTVNLQPLEWAYGSSESPSTSSEGQAGLPSAPSLSFVKGRCMLISRAYFEADISYSQDLIALFKQMDSRRYDVKTRKWSFLLEEHSKLIAKVRCLPQVQLDPLPTTLTLAFASQLKKTSLSLTPDVPEADLSEVDPKLVSNLMPFQRAGVNFAIAKGGRLLLADDMGLGKTIQAICIAAFYRKEWPLLVVVPSSVRFTWEQAFLRWLPSLSPDCINVVVTGKDRLTAGLINIVSFDLLSKLEKQLKTPFKVVIIDESHFLKNSRTARCRAAMPVLKVAKRVILLSGTPAMSRPAELYTQIIAVKPTFFPQFHAFGLRYCDAKRMPWGWDYSGSSNLGELKLLLEEAVMLRRLKSDVLSQLPAKQRKIVVIAPGRINARTRAALDAAAKEMTTKDKTKQQQKDALILFFNRTAEAKIPSVIEYILDLLESGREKFLVFAHHKVVLDAITQELERKHVQHIRIDGSTSSAEREDLCQQFQLSERHAVAVLSITAANMGLTFSSADLVVFAELFWNPGVLIQAEDRVHRIGQTSSVGIHYLVAKGTADDYLWPLIQEKIKVLAEAGLSETNFSEMTESTDYLYKDPKQQKIYDLFQKSFEKEGSDMELLEAAESFDPGSASGTSGSSSQNMGDTLDESSLTASPQKKRRFEFFDNWDSFTSPL

- binding: binds
B3: SMC1A (protein, UniProt Q14683 1-1233)
chain: MGFLKLIEIENFKSYKGRQIIGPFQRFTAIIGPNGSGKSNLMDAISFVLGEKTSNLRVKTLRDLIHGAPVGKPAANRAFVSMVYSEEGAEDRTFARVIVGGSSEYKINNKVVQLHEYSEELEKLGILIKARNFLVFQGAVESIAMKNPKERTALFEEISRSGELAQEYDKRKKEMVKAEEDTQFNYHRKKNIAAERKEAKQEKEEADRYQRLKDEVVRAQVQLQLFKLYHNEVEIEKLNKELASKNKEIEKDKKRMDKVEDELKEKKKELGKMMREQQQIEKEIKEKDSELNQKRPQYIKAKENTSHKIKKLEAAKKSLQNAQKHYKKRKGDMDELEKEMLSVEKARQEFEERMEEESQSQGRDLTLEENQVKKYHRLKEEASKRAATLAQELEKFNRDQKADQDRLDLEERKKVETEAKIKQKLREIEENQKRIEKLEEYITTSKQSLEEQKKLEGELTEEVEMAKRRIDEINKELNQVMEQLGDARIDRQESSRQQRKAEIMESIKRLYPGSVYGRLIDLCQPTQKKYQIAVTKVLGKNMDAIIVDSEKTGRDCIQYIKEQRGEPETFLPLDYLEVKPTDEKLRELKGAKLVIDVIRYEPPHIKKALQYACGNALVCDNVEDARRIAFGGHQRHKTVALDGTLFQKSGVISGGASDLKAKARRWDEKAVDKLKEKKERLTEELKEQMKAKRKEAELRQVQSQAHGLQMRLKYSQSDLEQTKTRHLALNLQEKSKLESELANFGPRINDIKRIIQSREREMKDLKEKMNQVEDEVFEEFCREIGVRNIREFEEEKVKRQNEIAKKRLEFENQKTRLGIQLDFEKNQLKEDQDKVHMWEQTVKKDENEIEKLKKEEQRHMKIIDETMAQLQDLKNQHLAKKSEVNDKNHEMEEIRKKLGGANKEMTHLQKEVTAIETKLEQKRSDRHNLLQACKMQDIKLPLSKGTMDDISQEEGSSQGEDSVSGSQRISSIYAREALIEIDYGDLCEDLKDAQAEEEIKQEMNTLQQKLNEQQSVLQRIAAPNMKAMEKLESVRDKFQETSDEFEAARKRAKKAKQAFEQIKKERFDRFNACFESVATNIDEIYKALSRNSSAQAFLGPENPEEPYLDGINYNCVAPGKRFRPMDNLSGGEKTVAALALLFAIHSYKPAPFFVLDEIDAALDNTNIGKVANYIKEQSTCNFQAIVISLKEEFYTKAESLIGVYPEQGDCVISKVLTFDLTKYPDANPNPNEQ
